No constants are given. Whether binding was seen depends on the method and setting. In cells and extracts the contact can be indirect. Here binding means that the protein was enriched with, or labelled near, the bait; the list need not be complete.
Target: GST-tagged wild type MSP-domain of VAPB (UniProt O95292)
Experiment: affinity purification with mass spectrometry

Amino acid sequences for entries named in this document (tags omitted). Residues count along the entry.
UniProt O95292, residues 7-124: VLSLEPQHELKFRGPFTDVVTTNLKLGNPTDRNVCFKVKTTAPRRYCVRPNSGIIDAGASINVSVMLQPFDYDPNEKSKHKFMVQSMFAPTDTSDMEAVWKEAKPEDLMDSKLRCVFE
UniProt Q8WYP5: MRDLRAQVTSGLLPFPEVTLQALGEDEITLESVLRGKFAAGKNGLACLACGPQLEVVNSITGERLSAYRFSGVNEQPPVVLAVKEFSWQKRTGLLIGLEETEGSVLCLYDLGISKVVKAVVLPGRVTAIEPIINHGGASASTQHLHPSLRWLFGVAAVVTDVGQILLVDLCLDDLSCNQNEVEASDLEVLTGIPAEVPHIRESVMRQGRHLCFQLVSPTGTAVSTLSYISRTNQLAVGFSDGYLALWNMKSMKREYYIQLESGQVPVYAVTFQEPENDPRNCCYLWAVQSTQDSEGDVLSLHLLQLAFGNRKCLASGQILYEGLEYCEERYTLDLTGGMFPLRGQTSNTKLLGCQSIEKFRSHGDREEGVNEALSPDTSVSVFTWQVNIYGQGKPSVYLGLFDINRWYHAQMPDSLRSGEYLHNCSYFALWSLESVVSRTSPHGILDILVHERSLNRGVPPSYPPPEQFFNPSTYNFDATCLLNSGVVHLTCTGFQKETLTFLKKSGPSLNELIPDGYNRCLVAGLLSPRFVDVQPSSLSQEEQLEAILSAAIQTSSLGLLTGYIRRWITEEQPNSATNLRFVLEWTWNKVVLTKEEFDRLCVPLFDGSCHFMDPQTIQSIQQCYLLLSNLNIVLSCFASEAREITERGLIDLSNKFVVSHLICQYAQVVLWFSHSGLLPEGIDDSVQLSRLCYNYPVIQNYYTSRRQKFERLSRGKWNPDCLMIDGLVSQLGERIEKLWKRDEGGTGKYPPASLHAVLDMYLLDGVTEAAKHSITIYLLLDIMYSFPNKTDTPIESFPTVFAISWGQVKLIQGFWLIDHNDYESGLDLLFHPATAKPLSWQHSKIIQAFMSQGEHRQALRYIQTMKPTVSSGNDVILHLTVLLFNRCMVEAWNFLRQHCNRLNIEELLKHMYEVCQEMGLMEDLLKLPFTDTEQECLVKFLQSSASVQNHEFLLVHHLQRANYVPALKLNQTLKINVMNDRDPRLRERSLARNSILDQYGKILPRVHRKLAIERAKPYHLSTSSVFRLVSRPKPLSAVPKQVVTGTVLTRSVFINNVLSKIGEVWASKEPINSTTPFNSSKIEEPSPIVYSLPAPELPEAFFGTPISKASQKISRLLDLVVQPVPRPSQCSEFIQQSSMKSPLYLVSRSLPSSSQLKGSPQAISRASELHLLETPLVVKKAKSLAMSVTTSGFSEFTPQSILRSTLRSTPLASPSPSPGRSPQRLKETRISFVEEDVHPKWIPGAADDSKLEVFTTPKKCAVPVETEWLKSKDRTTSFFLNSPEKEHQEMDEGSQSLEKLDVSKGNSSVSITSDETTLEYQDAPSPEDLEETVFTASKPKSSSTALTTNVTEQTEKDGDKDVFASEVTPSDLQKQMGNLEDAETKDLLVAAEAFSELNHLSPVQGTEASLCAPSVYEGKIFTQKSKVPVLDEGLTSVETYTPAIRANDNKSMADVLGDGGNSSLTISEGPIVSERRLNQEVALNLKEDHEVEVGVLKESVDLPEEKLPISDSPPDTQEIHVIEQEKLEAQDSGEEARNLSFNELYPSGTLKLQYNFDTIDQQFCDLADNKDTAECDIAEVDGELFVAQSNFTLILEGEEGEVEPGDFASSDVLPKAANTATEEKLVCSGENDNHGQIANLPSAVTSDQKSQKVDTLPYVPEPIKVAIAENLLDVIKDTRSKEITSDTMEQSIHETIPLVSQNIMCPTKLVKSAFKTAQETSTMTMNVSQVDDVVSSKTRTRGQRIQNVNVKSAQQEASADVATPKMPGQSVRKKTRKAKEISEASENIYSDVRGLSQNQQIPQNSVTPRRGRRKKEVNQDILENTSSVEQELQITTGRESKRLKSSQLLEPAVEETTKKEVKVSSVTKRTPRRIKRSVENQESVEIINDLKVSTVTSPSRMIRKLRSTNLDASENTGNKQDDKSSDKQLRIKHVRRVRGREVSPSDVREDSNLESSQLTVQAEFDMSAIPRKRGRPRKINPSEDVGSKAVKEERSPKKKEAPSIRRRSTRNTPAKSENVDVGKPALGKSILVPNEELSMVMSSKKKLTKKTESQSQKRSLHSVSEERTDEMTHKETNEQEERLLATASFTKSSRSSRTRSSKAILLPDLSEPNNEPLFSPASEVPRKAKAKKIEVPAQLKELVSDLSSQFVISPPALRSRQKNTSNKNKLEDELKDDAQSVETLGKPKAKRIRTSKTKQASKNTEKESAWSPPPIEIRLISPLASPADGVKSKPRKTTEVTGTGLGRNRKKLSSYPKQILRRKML

In the case of “ELYS (embryonic large molecule derived from yolk sac), endogenous full-length nucleoporin (from UniProt Q8WYP5 1-2266)”, the binding is reported as “binds”.
